Assay results: article PMC12032302, “A20 attenuates oxidized self-DNA-mediated inflammation in acute kidney injury” (Signal Transduction and Targeted Therapy, 2025)

Protein sequences, listed by entry. Tags and fused reporters are not part of them.
UniProt Q9ES74: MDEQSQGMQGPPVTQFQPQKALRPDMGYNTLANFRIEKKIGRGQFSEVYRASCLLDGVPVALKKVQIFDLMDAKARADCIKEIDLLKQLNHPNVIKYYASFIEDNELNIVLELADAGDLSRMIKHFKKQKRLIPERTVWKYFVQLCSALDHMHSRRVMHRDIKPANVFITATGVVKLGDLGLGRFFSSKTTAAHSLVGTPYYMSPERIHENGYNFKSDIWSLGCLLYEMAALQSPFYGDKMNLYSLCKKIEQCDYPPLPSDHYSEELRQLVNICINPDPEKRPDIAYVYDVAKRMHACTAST

Target: T1, A20, endogenous in primary mouse BMDMs (mouse (endogenous in primary BMDMs)) (UniProt Q60769)
T1 sequence: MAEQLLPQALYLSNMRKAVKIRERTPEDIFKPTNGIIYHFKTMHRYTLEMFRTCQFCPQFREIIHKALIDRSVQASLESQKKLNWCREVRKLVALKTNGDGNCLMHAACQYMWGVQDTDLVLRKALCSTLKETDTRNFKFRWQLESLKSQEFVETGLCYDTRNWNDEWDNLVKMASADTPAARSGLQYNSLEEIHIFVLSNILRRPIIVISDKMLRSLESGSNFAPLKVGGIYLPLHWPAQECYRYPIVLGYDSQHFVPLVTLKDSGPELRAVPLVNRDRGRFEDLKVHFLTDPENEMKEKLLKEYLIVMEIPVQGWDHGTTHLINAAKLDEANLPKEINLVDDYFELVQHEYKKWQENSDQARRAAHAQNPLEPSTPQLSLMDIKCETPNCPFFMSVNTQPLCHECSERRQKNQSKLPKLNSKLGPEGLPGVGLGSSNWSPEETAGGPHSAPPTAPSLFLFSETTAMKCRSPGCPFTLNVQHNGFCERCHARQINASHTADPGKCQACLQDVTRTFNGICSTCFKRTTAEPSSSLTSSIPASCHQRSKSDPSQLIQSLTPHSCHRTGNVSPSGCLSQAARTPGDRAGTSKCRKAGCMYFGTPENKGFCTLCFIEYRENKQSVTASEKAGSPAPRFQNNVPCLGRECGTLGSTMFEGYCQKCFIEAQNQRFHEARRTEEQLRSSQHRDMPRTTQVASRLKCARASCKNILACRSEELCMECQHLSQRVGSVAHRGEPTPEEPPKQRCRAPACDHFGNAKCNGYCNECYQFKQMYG
Assay: affinity purification with mass spectrometry; primary BMDMs with or without 30 µg ox-dsDNA90 for 6 h, mild lysis buffer; immunoprecipitation with A20 antibody and Protein A/G magnetic beads

Which binding does the source give for “NEK7, endogenous in primary mouse BMDMs (from UniProt Q9ES74 1-302)” here?
Its binding is “binds”.

Results are given in words; binding and its absence hold for the method and conditions named. Binding seen in cells or lysates may run through a third protein. Here binding means that the protein was enriched with, or labelled near, the bait; the list need not be complete.
